Data as given in paper PMC3044754.
Results are given in words; binding and its absence hold for the method and conditions named. Binding seen in cells or lysates may run through a third protein. Some entries that bind do so weakly or less than the wild type.

Assays:
[1] = target: endogenous WT1 (human (endogenous in human podocytes)) (UniProt P19544); experiment: co-IP; endogenous proteins; human podocytes treated with TGF-β1 (2 ng/ml) for 24 h; lysates immunoprecipitated with anti-WT1, blotted with anti-PINCH1
[2] = target: Flag-tagged wild-type PINCH1 (pFlag-PINCH1-wt) (UniProt P48059); experiment: co-IP; human podocytes transfected with Flag-PINCH1 for 48 h; lysates immunoprecipitated with anti-Flag overnight at 4°C, blotted for endogenous WT1

Row | Substance | binding [1] | binding [2]
1 | endogenous PINCH1 (from UniProt P48059 1-325) | binds | –
2 | endogenous WT1 (from UniProt P19544 1-449) | – | binds
